Experimental data as given in paper PMC8722053.
These are yes or no findings as the source states them, for the method shown. Binding seen in cells or lysates may run through a third protein. Some binding calls cover weakened binding; strength is not graded here.

Amino acid sequences for entries named in this document (tags omitted).
UniProt B2RWS6: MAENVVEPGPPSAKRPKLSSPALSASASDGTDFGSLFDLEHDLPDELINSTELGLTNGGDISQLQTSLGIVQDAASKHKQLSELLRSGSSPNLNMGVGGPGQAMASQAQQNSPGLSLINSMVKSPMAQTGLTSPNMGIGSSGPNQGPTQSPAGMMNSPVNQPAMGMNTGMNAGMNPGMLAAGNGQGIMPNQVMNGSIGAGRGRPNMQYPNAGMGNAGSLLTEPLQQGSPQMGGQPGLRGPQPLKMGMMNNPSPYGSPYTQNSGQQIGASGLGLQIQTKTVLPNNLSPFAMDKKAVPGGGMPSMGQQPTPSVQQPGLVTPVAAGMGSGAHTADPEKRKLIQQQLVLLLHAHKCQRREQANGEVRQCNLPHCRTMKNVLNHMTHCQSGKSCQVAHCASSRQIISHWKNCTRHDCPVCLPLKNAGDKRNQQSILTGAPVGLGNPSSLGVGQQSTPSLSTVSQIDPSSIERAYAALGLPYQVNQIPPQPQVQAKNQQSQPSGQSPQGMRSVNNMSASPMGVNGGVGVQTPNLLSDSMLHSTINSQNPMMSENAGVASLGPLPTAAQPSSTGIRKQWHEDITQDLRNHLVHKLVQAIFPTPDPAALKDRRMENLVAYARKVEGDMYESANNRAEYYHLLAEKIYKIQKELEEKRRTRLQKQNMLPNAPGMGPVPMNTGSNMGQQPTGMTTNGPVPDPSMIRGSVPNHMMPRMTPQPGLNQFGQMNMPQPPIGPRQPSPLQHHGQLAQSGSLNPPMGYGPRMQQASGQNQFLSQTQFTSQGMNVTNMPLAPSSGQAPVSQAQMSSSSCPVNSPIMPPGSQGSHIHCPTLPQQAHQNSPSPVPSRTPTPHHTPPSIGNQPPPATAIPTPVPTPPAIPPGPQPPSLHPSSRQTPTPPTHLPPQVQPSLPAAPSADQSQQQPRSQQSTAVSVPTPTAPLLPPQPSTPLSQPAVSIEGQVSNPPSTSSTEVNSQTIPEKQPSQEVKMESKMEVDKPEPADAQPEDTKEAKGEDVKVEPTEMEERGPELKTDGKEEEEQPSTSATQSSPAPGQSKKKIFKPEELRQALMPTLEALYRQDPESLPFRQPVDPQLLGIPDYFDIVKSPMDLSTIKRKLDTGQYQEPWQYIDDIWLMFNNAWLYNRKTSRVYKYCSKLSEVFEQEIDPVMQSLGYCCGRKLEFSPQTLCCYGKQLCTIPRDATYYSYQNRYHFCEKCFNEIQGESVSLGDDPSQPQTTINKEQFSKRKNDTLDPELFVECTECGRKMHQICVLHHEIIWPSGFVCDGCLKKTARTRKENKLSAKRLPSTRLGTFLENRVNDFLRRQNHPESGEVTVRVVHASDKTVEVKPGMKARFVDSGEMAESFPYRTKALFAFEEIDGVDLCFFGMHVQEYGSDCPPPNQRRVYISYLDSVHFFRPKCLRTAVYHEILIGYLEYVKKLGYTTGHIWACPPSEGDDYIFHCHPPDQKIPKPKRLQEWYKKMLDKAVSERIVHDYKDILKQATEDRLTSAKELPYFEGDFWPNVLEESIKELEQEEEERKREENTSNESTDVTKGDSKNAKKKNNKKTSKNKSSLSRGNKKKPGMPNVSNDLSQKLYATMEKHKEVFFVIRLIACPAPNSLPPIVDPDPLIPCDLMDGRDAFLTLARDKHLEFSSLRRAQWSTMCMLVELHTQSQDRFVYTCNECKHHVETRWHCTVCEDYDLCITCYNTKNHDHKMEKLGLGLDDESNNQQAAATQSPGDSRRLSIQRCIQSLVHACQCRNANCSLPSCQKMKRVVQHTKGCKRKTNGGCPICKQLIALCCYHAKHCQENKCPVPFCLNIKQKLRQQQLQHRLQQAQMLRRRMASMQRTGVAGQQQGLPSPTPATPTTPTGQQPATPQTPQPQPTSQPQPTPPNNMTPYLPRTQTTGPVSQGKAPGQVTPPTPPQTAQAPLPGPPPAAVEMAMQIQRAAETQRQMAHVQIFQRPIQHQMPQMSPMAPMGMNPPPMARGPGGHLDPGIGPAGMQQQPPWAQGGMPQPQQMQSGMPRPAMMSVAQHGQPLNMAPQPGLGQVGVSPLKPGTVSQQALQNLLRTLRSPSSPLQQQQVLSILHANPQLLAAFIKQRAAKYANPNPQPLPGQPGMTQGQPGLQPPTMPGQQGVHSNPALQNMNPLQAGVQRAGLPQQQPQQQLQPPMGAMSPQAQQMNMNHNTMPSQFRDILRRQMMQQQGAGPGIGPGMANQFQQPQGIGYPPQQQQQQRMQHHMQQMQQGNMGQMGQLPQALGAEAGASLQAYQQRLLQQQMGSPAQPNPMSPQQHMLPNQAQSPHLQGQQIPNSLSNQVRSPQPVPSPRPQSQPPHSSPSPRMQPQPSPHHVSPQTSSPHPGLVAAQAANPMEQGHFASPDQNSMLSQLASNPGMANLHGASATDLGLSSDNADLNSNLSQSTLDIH

Target: p300 (mouse (endogenous in liver)) (UniProt B2RWS6)
Test: co-IP; mouse liver tissue extract, pre-cleared with protein A/G-agarose; p300 antibody or nonimmune IgG (2 ug) overnight at 4 C; six washes with cold lysis buffer; immunoblot; wild-type littermates and liver-specific Pes1 knockout mice

B1: Sterol regulatory element binding protein 1c (protein, UniProt Q9WTN3-3 1-1110)
chain: MDCTFEDMLQLINNQDSDFPGLFDAPYAGGETGDTGPSSPGANSPESFSSASLASSLEAFLGGPKVTPAPLSPPPSAPAALKMYPSVSPFSPGPGIKEEPVPLTILQPAAPQPSPGTLLPPSFPAPPVQLSPAPVLGYSSLPSGFSGTLPGNTQQPPSSLPLAPAPGVLPTPALHTQVQSLASQQPLPASAAPRTNTVTSQVQQVPVVLQPHFIKADSLLLTAVKTDAGATVKTAGISTLAPGTAVQAGPLQTLVSGGTILATVPLVVDTDKLPIHRLAAGSKALGSAQSRGEKRTAHNAIEKRYRSSINDKIVELKDLVVGTEAKLNKSAVLRKAIDYIRFLQHSNQKLKQENLTLRSAHKSKSLKDLVSACGSGGGTDVSMEGMKPEVVETLTPPPSDAGSPSQSSPLSFGSRASSSGGSDSEPDSPAFEDSQVKAQRLPSHSRGMLDRSRLALCVLAFLCLTCNPLASLFGWGILTPSDATGTHRSSGRSMLEAESRDGSNWTQWLLPPLVWLANGLLVLACLALLFVYGEPVTRPHSGPAVHFWRHRKQADLDLARGDFPQAAQQLWLALQALGRPLPTSNLDLACSLLWNLIRHLLQRLWVGRWLAGQAGGLLRDRGLRKDARASARDAAVVYHKLHQLHAMGKYTGGHLAASNLALSALNLAECAGDAISMATLAEIYVAAALRVKTSLPRALHFLTRFFLSSARQACLAQSGSVPLAMQWLCHPVGHRFFVDGDWAVHGAPPESLYSVAGNPVDPLAQVTRLFREHLLERALNCIAQPSPGAADGDREFSDALGYLQLLNSCSDAAGAPACSFSVSSSMAATTGPDPVAKWWASLTAVVIHWLRRDEEAAERLYPLVEHIPQVLQDTERPLPRAALYSFKAARALLDHRKVESSPASLAICEKASGYLRDSLASTPTGSSIDKAMQLLLCDLLLVARTSLWQRQQSPASVQVAHGTSNGPQASALELRGFQHDLSSLRRLAQSFRPAMRRVFLHEATARLMAGASPARTHQLLDRSLRRRAGSSGKGGTTAELEPRPTWREHTEALLLASCYLPPAFLSAPGQRMSMLAEAARTVEKLGDHRLLLDCQQMLLRLGGGTTVTSS
binding: binds
